The assay addresses T1, 2× HA-3× FLAG-Eya1 (UniProt P97767).
T1 sequence: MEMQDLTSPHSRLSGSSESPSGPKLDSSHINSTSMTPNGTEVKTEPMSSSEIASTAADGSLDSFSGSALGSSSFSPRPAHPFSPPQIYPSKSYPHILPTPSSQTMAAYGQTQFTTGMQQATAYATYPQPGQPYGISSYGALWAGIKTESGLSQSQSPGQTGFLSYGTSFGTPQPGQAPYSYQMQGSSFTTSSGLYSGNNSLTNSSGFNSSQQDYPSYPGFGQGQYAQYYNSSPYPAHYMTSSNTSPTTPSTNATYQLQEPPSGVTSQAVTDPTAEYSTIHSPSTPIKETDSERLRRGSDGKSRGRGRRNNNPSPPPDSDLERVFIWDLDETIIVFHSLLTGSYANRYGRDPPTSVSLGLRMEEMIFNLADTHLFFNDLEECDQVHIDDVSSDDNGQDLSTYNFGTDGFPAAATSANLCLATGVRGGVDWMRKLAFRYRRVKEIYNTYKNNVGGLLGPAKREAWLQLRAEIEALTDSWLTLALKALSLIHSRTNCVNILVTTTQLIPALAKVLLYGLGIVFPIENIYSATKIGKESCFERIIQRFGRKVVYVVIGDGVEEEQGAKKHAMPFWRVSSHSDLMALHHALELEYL
Description: affinity purification with mass spectrometry; tandem purification of HF-Eya1 from lysate of stable HEK293 cells: anti-FLAG M2 beads, FLAG peptide elution, then anti-HA agarose; 50 mM Tris-HCl pH 7.5, 150 mM NaCl, 0.1% Nonidet P-40, 4°C; 12 bands (B1-B12) cut from a silver-stained gel.

Among the data in article PMC9561260 are binding values, retold here.

No constants are given. Whether binding was seen depends on the method and setting. Binding seen in cells or lysates may run through a third protein. These calls come from enrichment with a bait or labelling near it, and not all partners need be listed. Sequences can lack the tags named with a protein.

B1: WAPAL (regulator of sister chromatid cohesion) (protein, UniProt B2RTX8 1-1184)
chain: MTSRFGKTYSRKGGNGSSKFDEVFSNKRTTLSTKWGETTFMAKLGQKRPNFKPDIQEIPKKPKVEEESTGDPFGFDSDDESLPVSSKNLAQVKCSSYSESSEAAQLEEVTSVLEANSKISHVVVEDTVVSDKCFPLEDTLLGKEKSTNRIVEDDASISSCNKLITSDKVENFHEEHEKNSHHIHKNADDSTKKPNAETTVASEIKETNDTWNSQFGKRPESPSEISPIKGSVRTGLFEWDNDFEDIRSEDCILSLDSDPLLEMKDDDFKNRLENLNEAIEEDIVQSVLRPTNCRTYCRANKTKSSQGASNFDKLMDGTSQALAKANSESSKDGLNQAKKGGVSCGTSFRGTVGRTRDYTVLHPSCLSVCNVTIQDTMERSMDEFTASTPADLGEAGRLRKKADIATSKTTTRFRPSNTKSKKDVKLEFFGFEDHETGGDEGGSGSSNYKIKYFGFDDLSESEDDEDDDCQVERKTSKKRTKTAPSPSLQPPPESNDNSQDSQSGTNNAEDLPGVPESVKKPINKQGDKSKENTRKIFSGPKRSPTKAVYNARHWNHPDSEELPGPPVVKPQSVTVRLSSKEPNQKDDGVFKAPAPPSKVIKTVTIPTQPYQDIVTALKCRREDKELYTVVQHVKHFNDVVEFGENQEFTDDIEYLLSGLKSTQPLNTRCLSVISLATKCAMPSFRMHLRAHGMVAMVFKTLDDSQHHQNLSLCTAALMYILSRDRLNMDLDRASLDLMIRLLELEQDASSAKLLNEKDMNKIKEKIRRLCETVHNKHLDLENITTGHLAMETLLSLTSKRAGDWFKEELRLLGGLDHIVDKVKECVDHLSRDEDEEKLVASLWGAERCLRVLESVTVHNPENQSYLIAYKDSQLIVSSAKALQHCEELIQQYNRAEDSICLADSKPLPHQNVTNHVGKAVEDCMRAIIGVLLNLTNDNEWGSTKTGEQDGLIGTALNCVLQVPKYLPQEQRFDIRVLGLGLLINLVEYSARNRHCLVNMETSCSFDSSICSGEGDDSLRIGGQVHAVQALVQLFLERERAAQLAESKTDELIKDAPTTQHDKSGEWQETSGEIQWVSTEKTDGTEEKHKKEEEDEELDLNKALQHAGKHMEDCIVASYTALLLGCLCQESPINVTTVREYLPEGDFSIMTEMLKKFLSFMNLTCAVGTTGQKSISRVIEYLEHC
Take B1: the binding entry is “binds”.

B2: TAB1 (proliferation and apoptosis) (protein, UniProt Q15750 1-504)
chain: MAAQRRSLLQSEQQPSWTDDLPLCHLSGVGSASNRSYSADGKGTESHPPEDSWLKFRSENNCFLYGVFNGYDGNRVTNFVAQRLSAELLLGQLNAEHAEADVRRVLLQAFDVVERSFLESIDDALAEKASLQSQLPEGVPQHQLPPQYQKILERLKTLEREISGGAMAVVAVLLNNKLYVANVGTNRALLCKSTVDGLQVTQLNVDHTTENEDELFRLSQLGLDAGKIKQVGIICGQESTRRIGDYKVKYGYTDIDLLSAAKSKPIIAEPEIHGAQPLDGVTGFLVLMSEGLYKALEAAHGPGQANQEIAAMIDTEFAKQTSLDAVAQAVVDRVKRIHSDTFASGGERARFCPRHEDMTLLVRNFGYPLGEMSQPTPSPAPAAGGRVYPVSVPYSSAQSTSKTSVTLSLVMPSQGQMVNGAHSASTLDEATPTLTNQSPTLTLQSTNTHTQSSSSSSDGGLFRSRPAHSLPPGEDGRVEPYVDFAEFYRLWSVDHGEQSVVTAP
For the molecule B2, the binding entry is given as “binds”.

B3: PDS5A (sister chromatid cohesion protein) (protein, UniProt Q29RF7 1-1337)
chain: MDFTAQPKPATALCGVVSADGKIAYPPGVKEITDKITTDEMIKRLKMVVKTFMDMDQDSEDEKQQYLPLALHLASEFFLRNPNKDVRLLVACCLADIFRIYAPEAPYTSHDKLKDIFLFITRQLKGLEDTKSPQFNRYFYLLENLAWVKSYNICFELEDCNEIFIQLFRTLFSVINNSHNKKVQMHMLDLMSSIIMEGDGVTQELLDSILINLIPAHKNLNKQSFDLAKVLLKRTVQTIEACIANFFNQVLVLGRSSVSDLSEHVFDLIQELFAIDPHLLLSVMPQLEFKLKSNDGEERLAVVRLLAKLFGSKDSDLATQNRPLWQCFLGRFNDIHVPVRLESVKFASHCLMNHPDLAKDLTEYLKVRSHDPEEAIRHDVIVTIITAAKRDLALVNDQLLGFVRERTLDKRWRVRKEAMMGLAQLYKKYCLHGEAGKEAAEKVSWIKDKLLHIYYQNSIDDKLLVEKIFAQYLVPHNLETEERMKCLYYLYASLDPNAVKALNEMWKCQNMLRSHVRELLDLHKQPTSEANCSAMFGKLMTIAKNLPDPGKAQDFVKKFNQVLGDDEKLRSQLELLISPTCSCKQADICVREIARKLANPKQPTNPFLEMVKFLLERIAPVHIDSEAISALVKLMNKSIEGTADDEEEGVSPDTAIRSGLELLKVLSFTHPTSFHSAETYESLLQCLRMEDDKVAEAAIQIFRNTGHKIETDLPQIRSTLIPILHQKAKRGTPHQAKQAVHCIHAIFTNKEVQLAQIFEPLSRSLNADVPEQLITPLVSLGHISMLAPDQFASPMKSVVANFIVKDLLMNDRSTGEKNGKLWSPDEEVSPEVLAKVQAIKLLVRWLLGMKNNQSKSANSTLRLLSAMLVSEGDLTEQKRISKSDMSRLRLAAGSAIMKLAQEPCYHEIITPEQFQLCALVINDECYQVRQIFAQKLHKALVKLLLPLEYMAIFALCAKDPVKERRAHARQCLLKNISIRREYIKQNPMATEKLLSLLPEYVVPYMIHLLAHDPDFTRSQDVDQLRDIKECLWFMLEVLMTKNENNSHAFMKKMAENIKLTRDAQSPDESKTNEKLYTVCDVALCVINSKSALCNADSPKDPVLPMKFFTQPEKDFCNDKSYISEETRVLLLTGKPKPAGVLGAVNKPLSATGRKPYVRSTGTETGSNINVNSELNPSTGNRSREQSSEAAETGVSENEENPVRIISVTPVKNIDPVKNKEINSDQATQGNISSDRGKKRTVTAAGAENIQQKTDEKVDESGPPAPSKPRRGRRPKSESQGNATKNDDLNKPINKGRKRAAVGQESPGGLEAGNAKAPKLQDLAKKAAPAERQIDLQR
As to B3, the binding entry is recorded as “binds”.

B4: SCYL1 (protein, UniProt Q96KG9 1-808)
chain: MWFFARDPVRDFPFELIPEPPEGGLPGPWALHRGRKKATGSPVSIFVYDVKPGAEEQTQVAKAAFKRFKTLRHPNILAYIDGLETEKCLHVVTEAVTPLGIYLKARVEAGGLKELEISWGLHQIVKALSFLVNDCSLIHNNVCMAAVFVDRAGEWKLGGLDYMYSAQGNGGGPPRKGIPELEQYDPPELADSSGRVVREKWSADMWRLGCLIWEVFNGPLPRAAALRNPGKIPKTLVPHYCELVGANPKVRPNPARFLQNCRAPGGFMSNRFVETNLFLEEIQIKEPAEKQKFFQELSKSLDAFPEDFCRHKVLPQLLTAFEFGNAGAVVLTPLFKVGKFLSAEEYQQKIIPVVVKMFSSTDRAMRIRLLQQMEQFIQYLDEPTVNTQIFPHVVHGFLDTNPAIREQTVKSMLLLAPKLNEANLNVELMKHFARLQAKDEQGPIRCNTTVCLGKIGSYLSASTRHRVLTSAFSRATRDPFAPSRVAGVLGFAATHNLYSMNDCAQKILPVLCGLTVDPEKSVRDQAFKAIRSFLSKLESVSEDPTQLEEVEKDVHAASSPGMGGAAASWAGWAVTGVSSLTSKLIRSHPTTAPTETNIPQRPTPEGVPAPAPTPVPATPTTSGHWETQEEDKDTAEDSSTADRWDDEDWGSLEQEAESVLAQQDDWSTGGQVSRASQVSNSDHKSSKSPESDWSSWEAEGSWEQGWQEPSSQEPPPDGTRLASEYNWGGPESSDKGDPFATLSARPSTQPRPDSWGEDNWEGLETDSRQVKAELARKKREERRREMEAKRAERKVAKGPMKLGARKLD
Regarding B4, the binding result was “binds”.

B5: CDYL (protein, UniProt Q9Y232 1-598)
chain: MTFQASHRSAWGKSRKKNWQYEGPTQKLFLKRNNVSAPDGPSDPSISVSSEQSGAQQPPALQVERIVDKRKNKKGKTEYLVRWKGYDSEDDTWEPEQHLVNCEEYIHDFNRRHTEKQKESTLTRTNRTSPNNARKQISRSTNSNFSKTSPKALVIGKDHESKNSQLFAASQKFRKNTAPSLSSRKNMDLAKSGIKILVPKSPVKSRTAVDGFQSESPEKLDPVEQGQEDTVAPEVAAEKPVGALLGPGAERARMGSRPRIHPLVPQVPGPVTAAMATGLAVNGKGTSPFMDALTANGTTNIQTSVTGVTASKRKFIDDRRDQPFDKRLRFSVRQTESAYRYRDIVVRKQDGFTHILLSTKSSENNSLNPEVMREVQSALSTAAADDSKLVLLSAVGSVFCCGLDFIYFIRRLTDDRKRESTKMAEAIRNFVNTFIQFKKPIIVAVNGPAIGLGASILPLCDVVWANEKAWFQTPYTTFGQSPDGCSTVMFPKIMGGASANEMLLSGRKLTAQEACGKGLVSQVFWPGTFTQEVMVRIKELASCNPVVLEESKALVRCNMKMELEQANERECEVLKKIWGSAQGMDSMLKYLQRKIDEF
For the molecule B5, the binding result is on record as “binds”.

B6: MAGED1 (inhibits cell cycle and facilitates NGFR-mediated apoptosis) (protein, UniProt Q9Y5V3-2 1-834)
chain: MAQKMDCGAGLLGFQNPDACRAVCHPLPQPPASTLPLSAFPTLCDPPYSQLRDPPAVLSCYCTPLGASPAPAEASVEDSALLMQTLMEAIQISEAPPTNQATAAASPQSSQPPTANEMADIQVSAAAARPKSAFKVQNATTKGPNGVYDFSQAHNAKDVPNTQPKAAFKSQNATPKGPNAAYDFSQAATTGELAANKSEMAFKAQNATTKVGPNATYNFSQSLNANDLANSRPKTPFKAWNDTTKAPTADTQTQNVNQAKMATSQADIETDPGISEPDGATAQTSADGSQAQNLESRTIIRGKRTRKINNLNVEENSSGDQRRAPLAAGTWRSAPVPVTTQNPPGAPPNVLWQTPLAWQNPSGWQNQTARQTPPARQSPPARQTPPAWQNPVAWQNPVIWPNPVIWQNPVIWPNPIVWPGPVVWPNPLAWQNPPGWQTPPGWQTPPGWQGPPDWQGPPDWPLPPDWPLPPDWPLPTDWPLPPDWIPADWPIPPDWQNLRPSPNLRPSPNSRASQNPGAAQPRDVALLQERANKLVKYLMLKDYTKVPIKRSEMLRDIIREYTDVYPEIIERACFVLEKKFGIQLKEIDKEEHLYILISTPESLAGILGTTKDTPKLGLLLVILGVIFMNGNRASEAVLWEALRKMGLRPGVRHPLLGDLRKLLTYEFVKQKYLDYRRVPNSNPPEYEFLWGLRSYHETSKMKVLRFIAEVQKRDPRDWTAQFMEAADEALDALDAAAAEAEARAEARTRMGIGDEAVSGPWSWDDIEFELLTWDEEGDFGDPWSRIPFTFWARYHQNARSRFPQTFAGPIIGPGGTASANFAANFGAIGFFWVE
As to B6, the binding entry is on record as “binds”.
